{
  "source": "paper PMC6150240",
  "about": "“Synthesis and 2D-QSAR Study of Active Benzofuran-Based Vasodilators” (Molecules : A Journal of Synthetic Chemistry and Natural …, 2017)",
  "tested_on": "isolated thoracic aortic rings of male Wistar rats",
  "assay": "Vasodilation activity screening: isolated thoracic aortic rings pre-contracted with norepinephrine hydrochloride",
  "conditions": "Rattus norvegicus, norepinephrine hydrochloride 10^−6 M, three replicates, read-out: Potency (IC50), concentration necessary for 50% reduction of maximal norepinephrine hydrochloride induced contracture",
  "description": "The vasodilation activity screening procedures were carried out according to the standard reported techniques by testing the effects of the synthesized 2-alkoxy-4-aryl-6-(benzofuran-2-yl)-3-pyridinecarbonitriles 4a–x on isolated thoracic aortic rings of male Wistar rats (250–350 g). After light ether anesthesia, the rats were sacrificed by cervical dislocation. The aortae were immediately excised, freed of extraneous tissues and prepared for isometric tension recording. Aorta was cut into (3–5 mm width) rings and each ring was placed in a vertical chamber “10 mL jacketed automatic multi-chamber organ bath system (Model no. ML870B6/C, Panlab, Spain)” filled with Krebs solution composed of (in mM): NaCl, 118.0; KCl, 4.7; NaHCO3, 25.0; CaCl2, 1.8; NaH2PO4, 1.2; MgSO4, 1.2; glucose, 11.0 and oxygenated with carbogen gas (95% O2/5% CO2) at 37 ± 0.5 °C. Each aortic ring was mounted between two stainless steel hooks passed through its lumen. […] Preparations were stabilized under 2 g resting tension during 2 h and then the contracture response to norepinephrine hydrochloride (10^−6 M) was measured before and after exposure to increasing concentrations of the tested synthesized compounds. […]",
  "note": "Counter-ions that a name gives are not always drawn.",
  "data": [
    {"smiles": "CCCCc1oc2ccccc2c1C(=O)c1cc(I)c(OCCN(CC)CC)c(I)c1", "note": "[Amiodarone.HCl, amiodarone hydrochloride, reference compound]", "values": [
      {"measurement": "IC50", "value": 300, "unit": "µM"}
    ]}
  ]
}
